Data: PMC7994790
These are yes or no findings as the source states them, for the method shown. In cells and extracts the contact can be indirect. Some binding calls cover weakened binding; strength is not graded here. Tags and fused reporters may be left off the sequences shown.

T1: Flag-ETAA1 / HA-ETAA1 (UniProt Q9NY74)
T1 sequence: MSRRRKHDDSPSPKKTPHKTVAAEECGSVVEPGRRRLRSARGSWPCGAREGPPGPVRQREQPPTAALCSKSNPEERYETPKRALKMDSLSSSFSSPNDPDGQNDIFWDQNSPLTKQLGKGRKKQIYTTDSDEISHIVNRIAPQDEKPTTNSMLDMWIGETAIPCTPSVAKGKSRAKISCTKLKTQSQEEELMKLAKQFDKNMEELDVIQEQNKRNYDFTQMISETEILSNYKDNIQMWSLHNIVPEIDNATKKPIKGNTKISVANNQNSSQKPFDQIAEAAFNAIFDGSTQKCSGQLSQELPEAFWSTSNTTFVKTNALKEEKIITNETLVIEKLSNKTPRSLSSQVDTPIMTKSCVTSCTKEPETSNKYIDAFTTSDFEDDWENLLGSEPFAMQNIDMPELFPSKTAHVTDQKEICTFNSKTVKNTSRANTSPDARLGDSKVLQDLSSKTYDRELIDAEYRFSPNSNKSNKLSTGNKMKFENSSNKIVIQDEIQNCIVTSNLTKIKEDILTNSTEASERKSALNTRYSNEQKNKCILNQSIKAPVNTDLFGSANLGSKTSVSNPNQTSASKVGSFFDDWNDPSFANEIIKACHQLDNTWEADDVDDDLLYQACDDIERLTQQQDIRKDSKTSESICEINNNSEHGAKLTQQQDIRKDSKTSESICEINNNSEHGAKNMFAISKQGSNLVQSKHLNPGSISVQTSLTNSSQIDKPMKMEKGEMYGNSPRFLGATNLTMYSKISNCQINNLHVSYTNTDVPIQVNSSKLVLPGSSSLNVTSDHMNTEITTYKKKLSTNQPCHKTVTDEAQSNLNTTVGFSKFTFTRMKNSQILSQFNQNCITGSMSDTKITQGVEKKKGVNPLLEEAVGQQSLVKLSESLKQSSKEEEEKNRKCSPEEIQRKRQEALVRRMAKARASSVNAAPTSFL


Molecular target: T1, Flag-ETAA1 / HA-ETAA1
Test: co-IP; HEK293T cells transfected; NP-40 lysis buffer (in some experiments 0.75% CHAPS); anti-Flag M2 affinity gel or anti-HA agarose, 1–2 h at 4 °C; immunoblot; no AP20187 system

binding	Binder
binds	HA-ETAA1 2–570 (domain or fragment, UniProt Q9NY74 2-570) SRRRKHDDSPSPKKTPHKTVAAEECGSVVEPGRRRLRSARGSWPCGAREGPPGPVRQREQPPTAALCSKSNPEERYETPKRALKMDSLSSSFSSPNDPDGQNDIFWDQNSPLTKQLGKGRKKQIYTTDSDEISHIVNRIAPQDEKPTTNSMLDMWIGETAIPCTPSVAKGKSRAKISCTKLKTQSQEEELMKLAKQFDKNMEELDVIQEQNKRNYDFTQMISETEILSNYKDNIQMWSLHNIVPEIDNATKKPIKGNTKISVANNQNSSQKPFDQIAEAAFNAIFDGSTQKCSGQLSQELPEAFWSTSNTTFVKTNALKEEKIITNETLVIEKLSNKTPRSLSSQVDTPIMTKSCVTSCTKEPETSNKYIDAFTTSDFEDDWENLLGSEPFAMQNIDMPELFPSKTAHVTDQKEICTFNSKTVKNTSRANTSPDARLGDSKVLQDLSSKTYDRELIDAEYRFSPNSNKSNKLSTGNKMKFENSSNKIVIQDEIQNCIVTSNLTKIKEDILTNSTEASERKSALNTRYSNEQKNKCILNQSIKAPVNTDLFGSANLGSKTSVSNPNQTSA
binds	Flag-ETAA1 / HA-ETAA1 (protein, UniProt Q9NY74 1-926) MSRRRKHDDSPSPKKTPHKTVAAEECGSVVEPGRRRLRSARGSWPCGAREGPPGPVRQREQPPTAALCSKSNPEERYETPKRALKMDSLSSSFSSPNDPDGQNDIFWDQNSPLTKQLGKGRKKQIYTTDSDEISHIVNRIAPQDEKPTTNSMLDMWIGETAIPCTPSVAKGKSRAKISCTKLKTQSQEEELMKLAKQFDKNMEELDVIQEQNKRNYDFTQMISETEILSNYKDNIQMWSLHNIVPEIDNATKKPIKGNTKISVANNQNSSQKPFDQIAEAAFNAIFDGSTQKCSGQLSQELPEAFWSTSNTTFVKTNALKEEKIITNETLVIEKLSNKTPRSLSSQVDTPIMTKSCVTSCTKEPETSNKYIDAFTTSDFEDDWENLLGSEPFAMQNIDMPELFPSKTAHVTDQKEICTFNSKTVKNTSRANTSPDARLGDSKVLQDLSSKTYDRELIDAEYRFSPNSNKSNKLSTGNKMKFENSSNKIVIQDEIQNCIVTSNLTKIKEDILTNSTEASERKSALNTRYSNEQKNKCILNQSIKAPVNTDLFGSANLGSKTSVSNPNQTSASKVGSFFDDWNDPSFANEIIKACHQLDNTWEADDVDDDLLYQACDDIERLTQQQDIRKDSKTSESICEINNNSEHGAKLTQQQDIRKDSKTSESICEINNNSEHGAKNMFAISKQGSNLVQSKHLNPGSISVQTSLTNSSQIDKPMKMEKGEMYGNSPRFLGATNLTMYSKISNCQINNLHVSYTNTDVPIQVNSSKLVLPGSSSLNVTSDHMNTEITTYKKKLSTNQPCHKTVTDEAQSNLNTTVGFSKFTFTRMKNSQILSQFNQNCITGSMSDTKITQGVEKKKGVNPLLEEAVGQQSLVKLSESLKQSSKEEEEKNRKCSPEEIQRKRQEALVRRMAKARASSVNAAPTSFL
no binding	HA-ETAA1 2–305 (domain or fragment, UniProt Q9NY74 2-305) SRRRKHDDSPSPKKTPHKTVAAEECGSVVEPGRRRLRSARGSWPCGAREGPPGPVRQREQPPTAALCSKSNPEERYETPKRALKMDSLSSSFSSPNDPDGQNDIFWDQNSPLTKQLGKGRKKQIYTTDSDEISHIVNRIAPQDEKPTTNSMLDMWIGETAIPCTPSVAKGKSRAKISCTKLKTQSQEEELMKLAKQFDKNMEELDVIQEQNKRNYDFTQMISETEILSNYKDNIQMWSLHNIVPEIDNATKKPIKGNTKISVANNQNSSQKPFDQIAEAAFNAIFDGSTQKCSGQLSQELPEAF
binds	HA-ETAA1 571–926 (domain or fragment, UniProt Q9NY74 571-926) SKVGSFFDDWNDPSFANEIIKACHQLDNTWEADDVDDDLLYQACDDIERLTQQQDIRKDSKTSESICEINNNSEHGAKLTQQQDIRKDSKTSESICEINNNSEHGAKNMFAISKQGSNLVQSKHLNPGSISVQTSLTNSSQIDKPMKMEKGEMYGNSPRFLGATNLTMYSKISNCQINNLHVSYTNTDVPIQVNSSKLVLPGSSSLNVTSDHMNTEITTYKKKLSTNQPCHKTVTDEAQSNLNTTVGFSKFTFTRMKNSQILSQFNQNCITGSMSDTKITQGVEKKKGVNPLLEEAVGQQSLVKLSESLKQSSKEEEEKNRKCSPEEIQRKRQEALVRRMAKARASSVNAAPTSFL
